# Test results: PubChem BioAssay (Tox21)
# Protein sequences, listed by entry. Tags and fused reporters are not part of them.
# UniProt P28223, whole entry, looked up: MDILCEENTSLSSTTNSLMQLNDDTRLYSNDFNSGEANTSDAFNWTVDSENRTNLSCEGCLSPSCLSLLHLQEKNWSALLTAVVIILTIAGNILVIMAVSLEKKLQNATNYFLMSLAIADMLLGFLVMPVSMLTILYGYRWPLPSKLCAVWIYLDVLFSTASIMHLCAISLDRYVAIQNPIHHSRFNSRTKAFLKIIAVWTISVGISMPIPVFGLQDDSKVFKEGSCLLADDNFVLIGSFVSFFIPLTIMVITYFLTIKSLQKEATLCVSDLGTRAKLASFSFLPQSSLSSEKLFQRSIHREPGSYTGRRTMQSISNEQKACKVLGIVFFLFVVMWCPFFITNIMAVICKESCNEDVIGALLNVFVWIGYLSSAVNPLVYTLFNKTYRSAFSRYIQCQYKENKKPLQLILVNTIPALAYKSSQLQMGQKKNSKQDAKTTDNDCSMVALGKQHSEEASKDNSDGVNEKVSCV
# UniProt P14416, whole entry, looked up: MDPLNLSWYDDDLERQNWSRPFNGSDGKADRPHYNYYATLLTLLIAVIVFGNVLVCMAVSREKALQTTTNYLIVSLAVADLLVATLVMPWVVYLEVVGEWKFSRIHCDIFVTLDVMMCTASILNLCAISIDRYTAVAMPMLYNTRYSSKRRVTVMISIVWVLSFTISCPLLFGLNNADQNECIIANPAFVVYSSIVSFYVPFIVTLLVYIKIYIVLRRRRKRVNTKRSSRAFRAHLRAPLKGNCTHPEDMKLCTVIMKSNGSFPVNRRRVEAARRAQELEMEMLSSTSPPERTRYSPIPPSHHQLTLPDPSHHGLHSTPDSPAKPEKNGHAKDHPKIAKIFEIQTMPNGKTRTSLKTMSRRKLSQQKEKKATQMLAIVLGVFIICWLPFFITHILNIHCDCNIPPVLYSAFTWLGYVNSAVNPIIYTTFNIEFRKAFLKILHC
# Values joined by “and” are separate entries in the source; they are usually repeats but may differ in a detail not shown here. Identical values can stand only once. Only a part is listed here, and it is no random draw. Inconclusive results are not listed. Some structures have more than one record in an assay (separate samples or runs), and their calls can disagree. Active and inactive are the calls of the source. Unless noted, calls come from the whole dose curve.
# Tests used:
# [1] = biological target: 5-hydroxytryptamine receptor 2A (Homo sapiens) (UniProt P28223); test: 5-hydroxytryptamine receptor 2A (HTR2A) small molecule antagonists, cell-based qHTS assay (AID 1963586); conditions: HTR2A-CHO cells, DOI-induced calcium flux, fluorescence; note: nearly all actives have a fitted effect of over 45% in size
# Source text: (§1) National Center for Advancing Translational Sciences [NCATS]
# (§2) Division of Preclinical Innovation [DPI]
# (§3) U.S. Environmental Protection Agency [EPA]
# (§4) National Institutes of Environmental Health Sciences [NIEHS]
# (§5) National Toxicology Program [NTP]
# (§6) U.S. Food and Drug Administration [FDA]
# (§7) The HTR2A receptor is a subtype of the 5-HT2 receptor that belongs to the serotonin receptor family and is a G protein-coupled receptor (GPCR). The HTR2A-CHO cell line stably expressing human 5-hydroxytryptamine receptor 2A (HTR2A) can be used for screening antagonists of interactions between 5-HT2 and its ligands. The HTR2A-CHO calcium flux assay is a homogeneous fluorescence-based assay for detecting the intracellular calcium level using FDSS kinetic plate reader system.
# (§8) Tox21 Assay Protocol Summary:
# HTR2A-CHO cells were dispensed at 2000 cells/3uL/well in 1536-well black-clear bottom plates using a Multidrop Dispenser. After the assay plates were incubated at a 37 C/5% CO2 incubator for 18 h, 3 uL of Dye Loading Buffer was transferred to the assay plate by a Flying Reagent Dispenser. The assay plates were incubated at 37 C for 1h. For antagonist mode, 23 nL of compounds dissolved in DMSO, positive controls or DMSO only was transferred to the assay plate by a pin tool. […] The fluorescence intensity in the plates was measured using FDSS 7000EX kinetic plate reader for 3 min at 1 sec intervals.
# [2] = biological target: 5-hydroxytryptamine receptor 2A (Homo sapiens) (UniProt P28223); test: 5-hydroxytryptamine receptor 2A (HTR2A) small molecule agonists, cell-based qHTS assay (AID 1963587); conditions: HTR2A-CHO cells, calcium flux fluorescence, agonist mode; note: nearly all actives have a fitted effect of over 30% in size
# Source text: as §1, §2, §3, §4, §5, §6
# as §7, with “agonists” for “antagonists”
# HTR2A-CHO cells were dispensed at 2000 cells/3uL/well in 1536-well black-clear bottom plates using a Multidrop Dispenser. After the assay plates were incubated at a 37 C/5% CO2 incubator for 18 h, 3 uL of Dye Loading Buffer was transferred to the assay plate by a Flying Reagent Dispenser. The assay plates were incubated at 37 C for 1h. For agonist mode, 23 nL of compounds dissolved in DMSO, positive controls or DMSO only was transferred to the assay plate by a pin tool. The fluorescence intensity in the plates was measured using FDSS 7000EX kinetic plate reader for 2 min at 1 sec intervals.
# [3] = biological target: Beta-2 adrenergic receptor (Homo sapiens) (UniProt P07550); test: Adrenergic beta2 receptor (ADRB2) small molecule antagonists, cell-based qHTS assay (AID 1963592); conditions: CHO-ADRB2 cells, isoproterenol-stimulated cAMP HTRF ratio, 0.5 h; note: nearly all actives have a fitted effect of over 50% in size
# Source text: U.S. Tox21 Program National Center for Advancing Translational Sciences [NCATS] Division of Preclinical Innovation [DPI] U.S. Environmental Protection Agency [EPA] National Institutes of Environmental Health Sciences [NIEHS] National Toxicology Program [NTP] U.S. Food and Drug Administration [FDA] Tox21 Assay Overview: Beta adrenergic receptors (Beta-ARs) belong to the G-protein coupled receptor (GPCR) superfamily, includes three subtypes - beta1, beta2, and beta3. Beta1-AR is the predominant receptor subtype expressed in the heart, and beta2-AR is expressed in the kidney, lung, blood vessel and in the heart, and beta3 is found in the adipocytes. […] The principle of cAMP-Gs dynamic assay is based on HTRF technology, which facilitates the fluorescence resonance energy transfer (FRET) between donor Europium cryptate and acceptor d2-labeled cAMP. […]
# Tox21 Assay Protocol Summary: CHO-ADRB2 cells were dispensed at 1,000/well in 4uL assay medium into white/solid 1536-well plates (Greiner Bio-One North America Inc., Monroe, NC) using a Multidrop Combi dispenser (ThermoFisher Scientific, Waltham, MA). […] The fluorescence signal was measured at two different wavelengths (665nm and 615nm) using an Envision plate reader (Perkin Elmer, Shelton, CT). Data were expressed as the ratio of 665 nm/615 nm.
# [4] = biological target: D(2) dopamine receptor (Homo sapiens) (UniProt P14416); test: Dopamine D2 receptor (DRD2) small molecule antagonists, cell-based qHTS assay (AID 1963595; active = well fitted inhibition curve with a large enough effect in the signal ratio in the repeat runs, with a control signal flat; the % refers to the signal ratio); conditions: HEK293-DRD2 cAMP HTRF antagonist mode
# Source text: as §1, §2, §3, §4, §5, §6
# DRD2 is the D2 subtype of the dopamine receptor, which is coupled to Gi subtype of G protein-coupled receptor. This G protein-coupled receptor inhibits adenylyl cyclase activity. The DRD2-HEK293 cell line stably expressing D2 dopamine receptor can be used for screening agonists and antagonists of interactions between D2 and its ligands. The Hek293-DRD2 cAMP assay is based on HTRF technology. It measures changes of cAMP accumulation in response to Gi coupled GPCR activation or inhibition.
# as §8
# DRD2-Hek293 cells were dispensed at 600 cells/3uL/well in 1536-well white plates using a Multidrop Dispenser. After the assay plates were incubated at a 37 C/5% CO2 incubator for 24 h, 1 uL of Ro20-1724 at final concentration of 0.1 mM was transferred to the assay plate by a Flying Reagent Dispenser. Following Ro20-1724 addition, 23 nL of compound dissolved in DMSO, positive controls or DMSO only was added to the assay plates via Wako pintool station. […] The fluorescence intensity in the plates was measured at 340 nm excitation and 665 & 620 nm emission by an Envision plate reader.
# Potency is the fitted concentration of half-maximal effect.
smiles,measurement,setting,value
COc1cc(C(C)=O)ccc1OCCCN1CCC(c2noc3cc(F)ccc23)CC1,Potency,[1],active: 0.0018 µM
CCCN[C@H]1CCc2nc(N)sc2C1,Potency,[1],active: 4.03 µM
same,Potency,[2],active: 1.87 µM and active: 4.77 µM
Cc1cc(C(C)(C)C)cc(C)c1CC1=NCCN1,Potency,[2],active: 134 nM
CN1CCC[C@@H]1CCO[C@](C)(c1ccccc1)c1ccc(Cl)cc1,Potency,[3],active: 29.8 µM
CNCCCC12CCC(c3ccccc31)c1ccccc12,Potency,[4],active: 61.1 µM
